Consider 61 compounds from PubChem BioAssay AID2685 (National Center for Advancing Translational Sciences (NCATS), 2010).

The test in a line: qHTS Assay for Lipid Storage Modulators in Drosophila S3 Cells.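 As to cell number change: cells counted by Cell Tracker Red CMTPX staining in the red channel.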 The following applies: BODIPY lipid droplet fluorescence, 18-24 h; for cell number change: measured here: cell count max response, cells fed with added oleic acid. A digest of the protocol: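 Laser-scanning cytometry quantifies lipid droplet accumulation (500–530 nm total intensity; droplet/cell object ratio) in oleic acid-fed (400 uM added) Drosophila S3 cells treated with a concentration series. 20 uM Triacsin C defined 100% inhibition.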

The mark [1] stands for this setting: measured here: lipid fluorescence (Fed channel) AC50, cells fed with added oleic acid.
Setting [2] is: measured here: cell number channel AC50, cells fed with added oleic acid.

The list shows a part of the results. Shown are side measurements of this screen, not its main read-out; they come without a call. Most of these compounds were active or inconclusive in the main read-out, so they are no random draw. Words in brackets tell the shape of the fitted curve; partial curves, single points and poor fits give uncertain potencies.

As to `COc1cccc(NC(=O)CNC(=O)N2CC(=O)Nc3ccccc32)c1`, the cell number change was -27.6%. Besides, the AC50 under setting [1] is 6.51 µM [rising, single point].

Turning to `Cc1ccc(S(=O)(=O)c2c(N)n(CCCN(C)C)c3nc4ccccc4nc23)cc1`, the cell number change came out at 7.25%.

In the case of `O=C(CN1CCN(c2ccccn2)CC1)Nc1ccccc1C(=O)Nc1ccccc1`, the cell number change turned out to be 49%. The AC50 under setting [2] was 8.2 µM [rising, partial curve].

Take `O=C(Cn1ncc2c(=O)oc3ccccc3c21)N1CCC(N2CCCCC2)CC1`: the cell number change is -53.3%. Also, under setting [2], the AC50 was 29.1 µM [falling, single point].

Turning to `CCOc1ccc(CC(=O)NNC(=O)/C=C/C(=O)O)cc1`, the cell number change was 16.5%. Besides, the AC50 under setting [1] is 14.6 µM [rising, single point].

As to `Cc1ccccc1-c1noc(CCC(=O)NC2CCCCC2)n1`, the cell number change is 21.3%. Besides, the AC50 under setting [1] was 6.51 µM [rising, single point].

Take `O=C(Nc1ccc2c(c1)C(=O)N(c1ccccc1)C2=O)c1cccs1`: the cell number change is -9.87%. Also, under setting [1], the half-maximal activity concentration (AC50) was 4.11 µM [falling, full curve, poor fit].

With `COc1ccc(OC)c(NS(=O)(=O)c2ccc3c(c2)n(C)c(=O)n3C)c1`, the cell number change worked out at 10.1%. Besides, the AC50 under setting [1] is 0.082 µM [rising, full curve, poor fit].

Take `Cc1csc(NC(=O)COc2ccc3c(C)cc(=O)oc3c2)n1`: the cell number change came to 59.7%. Besides, the AC50 under setting [2] is 1.46 µM [rising, partial curve]. The concentration at half-maximal activity (AC50) under setting [1] was 1.64 µM [rising, partial curve].

With `COc1ccc(C2N=C(c3ccccc3)C(C)(C)N2O)cc1OC` (stereo unspecified), the cell number change stood at 0.471%. Moreover, under setting [1], the AC50 is 3.26 µM [rising, partial curve, poor fit].

In the case of `CCCC(C(=O)NC(C)(C)CC)N(CC1CCCO1)C(=O)CNS(=O)(=O)c1ccc(F)cc1` (stereo unspecified), the cell number change was found to be 1.28%.

Regarding `Oc1ccc2ccccc2c1CNc1ccc(Br)cc1`, the cell number change was -8.16%. Further, the AC50 under setting [1] was 2.06 µM [falling, partial curve].

With `Cc1[nH]c(=O)[nH]c(=O)c1CSc1nnc([C@@H](NC(=O)OC(C)(C)C)C(C)C)o1`, the cell number change was 4.02%.

With `CCC1CCCCN1CCN1C(=O)C2C(C(=O)Nc3ccc(OC)cc3)C3C=CC2(O3)C1C(=O)NC1CCCCC1` (stereo unspecified), the cell number change was found to be 6.67%.

Regarding `CC(Oc1ccc(-c2ccccc2)cc1)C(=O)N/N=C/c1cccnc1` (stereo unspecified), the cell number change turned out to be 10.3%.

With `CCn1c2ccccc2c2nnc(SCC(=O)Nc3cc(C)on3)nc21`, the cell number change is -50.2%. Moreover, the AC50 under setting [2] was 32.6 µM [falling, single point]. Besides, the AC50 under setting [1] is 1.16 µM [rising, single point].

With `CC(Oc1ccccc1)C(=O)N1CCN(C(=O)C(C)Oc2ccccc2)CC1` (stereo unspecified), the cell number change came to 15.7%.

In the case of `COCCn1c(SCC(=O)OC(C)C)nnc1-c1ccccc1`, the cell number change stood at 31.4%. Besides, the AC50 under setting [2] was 0.326 µM [rising, full curve].

As to `CC(C)Nc1ccc(Nc2ccnc3cc4ccccc4cc23)cc1`, the cell number change is -67.9%. Also, under setting [2], the half-maximal activity concentration (AC50) is 13 µM [falling, partial curve]. In addition, the AC50 under setting [1] was 14.6 µM [falling, partial curve].

In the case of `CC(=O)c1ccc(NC(=O)c2cc(S(=O)(=O)N3CCOCC3)ccc2C)cc1`, the cell number change stood at 23.8%. The AC50 under setting [1] was 6.51 µM [rising, partial curve, poor fit].

Turning to `NC(=O)COC(=O)c1ccc2c(c1)S(=O)(=O)c1ccccc1C2=O`, the cell number change was 11.7%. Moreover, the AC50 under setting [1] was 0.92 µM [falling, full curve, poor fit].

In the case of `OC(CN1CCOCC1)Cn1cnc2ccccc21` (stereo unspecified), the cell number change was -21.1%. In addition, the AC50 under setting [1] was 29.1 µM [falling, single point].

With `COC(=O)N1CC(C)N(C(=O)OC)CC1C` (stereo unspecified), the cell number change is -15.2%. Moreover, the AC50 under setting [1] is 0.00461 µM [falling, full curve, poor fit].

`COc1ccc(-n2c(=S)[nH]c3cc(C(=O)Nc4ccc(F)cc4)ccc3c2=O)c(OC)c1`: the concentration at half-maximal activity (AC50) under setting [1] is 23.1 µM [falling, partial curve].

Regarding `Cc1ccc(C(=O)N/C(=C\c2cccs2)C(=O)NCCc2c[nH]c3ccccc23)cc1`, the cell number change is -1.4%. For the same compound, under setting [1], the AC50 was 0.146 µM [rising, full curve, poor fit].

Take `COc1cc(/C=C/C(=O)OCC(=O)Nc2ccc(C)c(S(=O)(=O)N3CCCCC3)c2)ccc1O`: the cell number change was 30.3%. In addition, under setting [2], the AC50 is 7.31 µM [rising, partial curve]. Also, the AC50 under setting [1] was 5.8 µM [rising, single point].

For the compound `c1ccc2c(NCC3CCCO3)nc(N3CCCCC3)nc2c1` (stereo unspecified), the cell number change was determined as 30.2%. For the same compound, the AC50 under setting [2] is 18.4 µM [rising, single point].

Consider `O=C(Nc1nc(-c2ccc3c(c2)OCO3)cs1)C1CC1`, for which the AC50 under setting [1] is 0.58 µM [rising, single point].

On to `COc1ccc(Nc2nc3ccccc3n3nnnc23)cc1`, for which, under setting [2], the AC50 is 2.31 µM [rising, partial curve].

Take `Cc1cc([N+](=O)[O-])nn1CC(=O)Nc1sc2c(c1C(N)=O)CCCC2`: the cell number change was determined as 36.4%. Moreover, under setting [2], the AC50 was 3.26 µM [rising, partial curve]. Further, the AC50 under setting [1] is 29.1 µM [rising, single point].

For `CCOC(=O)c1ccc(CNC(=O)C2CCC(=O)N(CCc3ccccc3)C2)o1` (stereo unspecified), the cell number change was -73.7%. Moreover, under setting [2], the AC50 is 23.1 µM [falling, partial curve, poor fit].

With `CCN(CC)CCn1c2c(c(SCC(=O)Nc3cccc4ccccc34)nc1=O)CCCC2`, the cell number change was 23.4%. Further, under setting [1], the AC50 was 8.2 µM [rising, partial curve, poor fit].

`CCN1CCN(CC(O)COc2cccc(OC)c2)CC1` (stereo unspecified): the cell number change is 0.354%. Also, under setting [1], the AC50 was 6.51 µM [falling, single point].

For `CC1=C(C(=O)Nc2ccccc2)C(c2ccco2)n2ncnc2N1` (stereo unspecified), the cell number change came out at 13.5%. Besides, the AC50 under setting [1] was 9.2 µM [rising, partial curve, poor fit].

Consider `COc1ccc(/C(N)=N/OC(=O)c2ccco2)cc1`, for which the AC50 under setting [2] is 6.51 µM [rising, partial curve, poor fit].

Take `O=S(=O)(Nc1ccncc1)c1ccc(Cl)cc1`: the AC50 under setting [1] was 29.1 µM [falling, single point].

Take `CCN(CC)c1ccc(-c2nnc(SCC(=O)Nc3ccccc3C#N)n2-c2ccccc2)cc1`: the cell number change was -20.5%. In addition, under setting [1], the AC50 is 11.6 µM [falling, partial curve, poor fit].

For the compound `Cc1c(NS(=O)(=O)c2cc(NC(=O)CCN3CCCC(C)C3)ccc2Cl)c(=O)n(-c2ccccc2)n1C` (stereo unspecified), the cell number change worked out at 14.1%. Under setting [2], the AC50 was 0.731 µM [falling, full curve, poor fit].

Take `O=C(CSc1nnc(NC(=O)c2c(F)cccc2F)s1)NC1CC1`: the cell number change is -8.4%.

Regarding `COc1ccc(-c2nc(CC(=O)O)cs2)cc1`, the cell number change is -47%. Moreover, the AC50 under setting [2] was 32.6 µM [falling, partial curve, poor fit].

Turning to `C=CCNC(=O)c1ccc2c(c1)nnn2C`, the cell number change worked out at 4.49%. Besides, the AC50 under setting [1] is 6.51 µM [falling, single point].

Turning to `Cc1ccc(C)c(N2CCN(c3nc4ccccc4c(=O)n3Cc3ccccc3)CC2)c1`, the cell number change was 10.2%. Under setting [1], the AC50 is 0.411 µM [rising, full curve, poor fit].

In the case of `CC1CCN(C(=O)c2cccc(NC(=O)c3cccs3)c2)CC1`, the cell number change is 6.76%.

With `CCOc1ccc(-n2cnnn2)cc1S(=O)(=O)Nc1c(C)cccc1C`, the cell number change worked out at 19.7%. Further, the AC50 under setting [2] is 1.64 µM [rising, partial curve, poor fit]. Also, the AC50 under setting [1] was 0.58 µM [rising, full curve, poor fit].

As to `CCC1CCc2sc(C(=O)N(C)CC(=O)Nc3cccc(OC)c3)cc2C1` (stereo unspecified), the cell number change was found to be 17.7%. Also, the AC50 under setting [1] was 10.3 µM [rising, partial curve, poor fit].

In the case of `C/C(=N\Nc1cc(Cl)nc(C)n1)c1ccc(Cl)c(Cl)c1`, under setting [1], the AC50 is 0.103 µM [rising, full curve, poor fit].

As for `N#Cc1c(SCC(=O)Nc2nc3ccc(Br)cc3s2)sc2c(O)cc(=O)[nH]c12`, the cell number change amounted to 8.55%. Further, under setting [1], the AC50 was 0.146 µM [rising, full curve, poor fit].

Take `O=C(N/N=C/c1ccccc1)c1c(O)c2ccccc2[nH]c1=O`: the cell number change is -29.7%. Besides, under setting [1], the AC50 was 6.51 µM [falling, full curve].

In the case of `Brc1cccc(OCCCN2CCCCCC2)c1`, the cell number change was -18.1%. Also, the AC50 under setting [1] was 29.1 µM [falling, single point].

For `CCCCn1c(N)c(N(CC(C)C)C(=O)c2cc(-c3ccncc3)nc3ccccc23)c(=O)[nH]c1=O`, the AC50 under setting [2] is 1.03 µM [rising, single point].

`O=C(NNc1ccccc1)C(=O)NNS(=O)(=O)c1ccc([N+](=O)[O-])cc1`: the cell number change is -9.98%.

For `Cc1cccc(CSc2ncnc3ccccc23)c1`, the cell number change was -20.8%.

In the case of `CC(=O)Nc1ccc(-n2c(=O)c3ccccc3c3ccccc3c2=O)cc1`, the cell number change is -12.6%. Moreover, under setting [1], the AC50 was 7.31 µM [falling, partial curve].

With `COc1ccc(/C=C/c2cc(=O)c3cc(Cl)ccc3o2)cc1`, the cell number change worked out at 35.4%. In addition, under setting [2], the concentration at half-maximal activity (AC50) is 10.3 µM [rising, partial curve, poor fit]. Also, under setting [1], the AC50 was 2.06 µM [rising, partial curve].

Regarding `Cc1ccc(NC(=O)CCSc2ccccn2)cc1`, the cell number change was determined as 2.35%. Moreover, under setting [1], the AC50 is 29.1 µM [falling, single point].

With `O=C1CNC(=O)/C1=C\N1CCCCC1`, the cell number change is -10.3%. Further, the half-maximal activity concentration (AC50) under setting [1] was 14.6 µM [falling, partial curve].

As for `CCc1sc(C(=O)NCCc2ccc(S(N)(=O)=O)cc2)cc1C`, the cell number change was found to be 17.1%.

`Cc1ccc(S(=O)(=O)N2CCCC2c2nc3ccccc3s2)cc1` (stereo unspecified): the cell number change was 24.1%. Moreover, the AC50 under setting [1] was 3.26 µM [rising, full curve].

As for `C#CCOCCOCCOCCNc1nc(N2CCOCC2)nc(N2CCN(C(=O)CCCCCCCCCCNC(=O)[C@@H]([C@H](C)CC)n3cc(CCCCCN)nn3)CC2)n1`, the cell number change is -44.7%. Further, under setting [2], the AC50 is 16.4 µM [falling, single point]. Under setting [1], the AC50 was 32.6 µM [falling, single point].

As to `Cc1ccc(NS(=O)(=O)c2cccc(C(=O)NCC(c3ccco3)N3CCCCC3)c2)cc1` (stereo unspecified), the cell number change was -4.7%. Under setting [1], the AC50 was 0.00411 µM [rising, full curve, poor fit].

Regarding `COC(=O)[C@@]12CCCCN1[C@H](c1ccc(-c3ccc(C(C)=O)cc3)c(OC)c1)[C@@H]1C(=O)N(C)C(=O)[C@@H]12`, the AC50 under setting [2] was 6.51 µM [rising, single point].
